According to publication PMC7862700:
This is a selection; strong and weak results do not stand in their true shares. At the low end of the ranking the order means little.

These sequences were tested against T1, ETS2 (UniProt P15036) (assay: DAPPL (digital affinity profiling via proximity ligation, sequencing)). Settings: 10 mM Tris-HCl pH 7.5, 50 mM NaCl, 1 mM DTT, 4% glycerol, room temperature, 30 min; GST-TFs on glutathione beads, 16-mer random dsDNA library, 0.1% …; high values mean tight binding; double strand, one strand shown; scale: fold enrichment (6-mer frequency, TF over GST control).
T1 sequence: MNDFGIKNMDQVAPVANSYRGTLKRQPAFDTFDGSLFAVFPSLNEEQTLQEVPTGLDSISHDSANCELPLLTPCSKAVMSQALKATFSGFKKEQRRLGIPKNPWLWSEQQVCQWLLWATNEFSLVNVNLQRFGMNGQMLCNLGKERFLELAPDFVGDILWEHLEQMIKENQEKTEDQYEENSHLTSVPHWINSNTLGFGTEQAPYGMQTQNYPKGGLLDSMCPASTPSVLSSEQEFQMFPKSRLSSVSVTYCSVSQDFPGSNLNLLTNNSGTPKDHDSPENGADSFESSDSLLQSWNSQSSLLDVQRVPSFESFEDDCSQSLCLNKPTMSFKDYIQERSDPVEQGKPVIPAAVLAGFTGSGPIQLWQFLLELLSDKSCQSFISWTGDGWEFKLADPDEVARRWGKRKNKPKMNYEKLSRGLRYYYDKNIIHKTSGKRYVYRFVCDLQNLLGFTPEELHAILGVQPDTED
TTCGTC showed a binding signal of 1.31.
CCAATA showed a binding signal of 1.28.
CTGATG showed a binding signal of 1.68.
In the case of TGAATG, the binding signal was 1.25.
In the case of TTCCAT, the binding signal was 1.25.
For ACATGA, the binding signal was 0.98.
With CGACCA the binding signal was 1.29.
Sequence CTCACC has a binding signal of 1.11.
CCTTCA was tested, and the binding signal was 1.38.
In the case of ACAAAC, the binding signal was 1.22.
With ACTGAT the binding signal was 1.28.
For ATACGA, the binding signal was 1.17.
TCATCA showed a binding signal of 1.15.
With AACCTA the binding signal was 1.11.
For ATTACC, the binding signal was 1.27.
In the case of GATCAC, the binding signal was 0.914.
In the case of TAGAAT, the binding signal was 1.06.
CGCGAA gave a binding signal of 0.842.
ATAAGT showed a binding signal of 1.06.
Sequence TACTAT has a binding signal of 1.37.
Sequence GCGTCT has a binding signal of 1.04.
Sequence TTACGG has a binding signal of 1.43.
TAACGG showed a binding signal of 1.1.
In the case of TTTGGA, the binding signal was 1.19.
Work on CACCGA yielded a binding signal of 1.12.
ATCCAT gave a binding signal of 1.17.
Work on GCTCTA yielded a binding signal of 1.16.
For CGCGCT, the binding signal was 1.25.
CCCTCT gave a binding signal of 1.36.
In the case of AAGTAT, the binding signal was 1.46.
In the case of AGCGAT, the binding signal was 1.09.
GCTGCT was tested, and the binding signal was 1.43.
Work on TCCGAT yielded a binding signal of 1.28.
TATTTT was tested, and the binding signal was 1.35.
Work on CTAGAT yielded a binding signal of 1.2.
Sequence AGCTAT has a binding signal of 1.11.
For TTTTAT, the binding signal was 1.23.
Sequence AAATGC has a binding signal of 1.25.
For AATACT, the binding signal was 1.23.

These sequences were tested against T2, ETV3 (UniProt P41162-2) in the same assay as above. Settings: 10 mM Tris-HCl pH 7.5, 50 mM NaCl, 1 mM DTT, 4% glycerol, room temperature, 30 min; GST-TFs on glutathione beads, 16-mer random dsDNA library, 0.1% …; high values mean tight binding; double strand, one strand shown; scale: fold enrichment (6-mer frequency, TF over GST control).
T2 sequence: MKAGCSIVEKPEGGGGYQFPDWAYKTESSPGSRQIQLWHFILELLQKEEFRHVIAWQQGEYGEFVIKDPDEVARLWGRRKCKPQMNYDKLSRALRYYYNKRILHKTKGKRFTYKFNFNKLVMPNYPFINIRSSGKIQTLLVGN
With ACATGA the binding signal was 0.955.
CTCACC showed a binding signal of 1.14.
ATACGA gave a binding signal of 1.11.
Work on GATCAC yielded a binding signal of 0.928.
With CGCGAA the binding signal was 1.01.
For ATAAGT, the binding signal was 1.03.
TACTAT was tested, and the binding signal was 1.36.
GCTCTA gave a binding signal of 1.1.
CCCTCT showed a binding signal of 1.4.
